Tested on: MYO-29 cell line
Experiment: Dish scale carnosine experiments (dish cultures taken from bioreactor)
Format: cell-based
Details: 10 mM carnosine added on day 4, 7 or 10; dishes at 31° C., harvested day 12

With `NCCC(=O)N[C@@H](Cc1cnc[nH]1)C(=O)O` [carnosine] the acidic peaks was “decreasing” and the “high molecular weight aggregates” value was “decreasing”.
